Assay results as given in paper PMC9236607.
These are yes or no findings as the source states them, for the method shown. Some binding calls cover weakened binding; strength is not graded here. Tags and fused reporters may be left off the sequences shown.

The chains behind the UniProt entries cited, without tags or fusion partners. Where a name states a change or a piece, a line headed by the entry shows the natural chain unless it says otherwise.
UniProt P09733: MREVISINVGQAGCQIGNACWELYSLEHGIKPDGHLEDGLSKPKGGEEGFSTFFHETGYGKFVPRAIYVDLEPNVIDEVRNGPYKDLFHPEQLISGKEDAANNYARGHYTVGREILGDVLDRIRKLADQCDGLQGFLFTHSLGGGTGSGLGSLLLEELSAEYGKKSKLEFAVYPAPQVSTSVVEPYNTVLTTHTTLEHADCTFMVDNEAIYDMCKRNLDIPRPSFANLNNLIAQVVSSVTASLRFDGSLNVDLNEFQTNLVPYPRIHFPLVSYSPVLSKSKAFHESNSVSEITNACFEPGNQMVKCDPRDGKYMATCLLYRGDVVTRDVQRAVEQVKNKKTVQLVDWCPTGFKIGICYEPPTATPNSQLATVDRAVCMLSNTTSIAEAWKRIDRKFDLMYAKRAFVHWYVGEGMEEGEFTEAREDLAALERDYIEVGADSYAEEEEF

Target: T1, GST-TOG1/2 (the two TOG domains of Stu2 fused to a GST tag, Stu2 1-590) (S. cerevisiae) (UniProt P46675)
T1 sequence: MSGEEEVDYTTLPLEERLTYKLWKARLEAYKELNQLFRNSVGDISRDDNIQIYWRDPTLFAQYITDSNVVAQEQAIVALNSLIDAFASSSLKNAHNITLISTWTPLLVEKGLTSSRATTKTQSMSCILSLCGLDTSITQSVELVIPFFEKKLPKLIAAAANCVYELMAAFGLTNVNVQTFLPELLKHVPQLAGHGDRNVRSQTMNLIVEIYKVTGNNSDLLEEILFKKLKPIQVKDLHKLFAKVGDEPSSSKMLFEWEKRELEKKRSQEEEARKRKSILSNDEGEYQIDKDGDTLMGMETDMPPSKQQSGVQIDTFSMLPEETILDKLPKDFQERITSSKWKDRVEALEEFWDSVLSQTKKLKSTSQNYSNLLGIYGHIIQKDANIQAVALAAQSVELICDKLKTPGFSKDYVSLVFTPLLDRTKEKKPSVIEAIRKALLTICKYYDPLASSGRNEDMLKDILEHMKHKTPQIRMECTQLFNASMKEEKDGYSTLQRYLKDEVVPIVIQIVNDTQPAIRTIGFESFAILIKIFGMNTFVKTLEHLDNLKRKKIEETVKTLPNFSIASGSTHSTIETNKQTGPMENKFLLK
Experiment: pull-down; 100 nM tubulin mixed with 9.8 nM to 5 µM GST-TOG1/2 at 4°C for 15 min, then glutathione magnetic agarose beads, 4°C, 1 hr; beads equilibrated in 125 mM Tris-HCl, 150 mM KCl, 1 mM DTT, 1 mM EDTA, pH 7.4; unbound tubulin left in the supernatant read by western blot for α- and β-tubulin; both purified

purified budding yeast tubulin heterodimer, Tub1-V410I (internal 6X-His) with Tub2 (from UniProt P09733 1-447; P02557 1-457) (complex)
binding: binds weakly

purified budding yeast tubulin heterodimer, Tub1-V410A (internal 6X-His) with Tub2 (from UniProt P09733 1-447; P02557 1-457) (complex)
binding: binds weakly
